For 2 molecules, binding results are on record in publication PMC10808738.

The chains behind the UniProt entries cited, without tags or fusion partners.
UniProt O00429: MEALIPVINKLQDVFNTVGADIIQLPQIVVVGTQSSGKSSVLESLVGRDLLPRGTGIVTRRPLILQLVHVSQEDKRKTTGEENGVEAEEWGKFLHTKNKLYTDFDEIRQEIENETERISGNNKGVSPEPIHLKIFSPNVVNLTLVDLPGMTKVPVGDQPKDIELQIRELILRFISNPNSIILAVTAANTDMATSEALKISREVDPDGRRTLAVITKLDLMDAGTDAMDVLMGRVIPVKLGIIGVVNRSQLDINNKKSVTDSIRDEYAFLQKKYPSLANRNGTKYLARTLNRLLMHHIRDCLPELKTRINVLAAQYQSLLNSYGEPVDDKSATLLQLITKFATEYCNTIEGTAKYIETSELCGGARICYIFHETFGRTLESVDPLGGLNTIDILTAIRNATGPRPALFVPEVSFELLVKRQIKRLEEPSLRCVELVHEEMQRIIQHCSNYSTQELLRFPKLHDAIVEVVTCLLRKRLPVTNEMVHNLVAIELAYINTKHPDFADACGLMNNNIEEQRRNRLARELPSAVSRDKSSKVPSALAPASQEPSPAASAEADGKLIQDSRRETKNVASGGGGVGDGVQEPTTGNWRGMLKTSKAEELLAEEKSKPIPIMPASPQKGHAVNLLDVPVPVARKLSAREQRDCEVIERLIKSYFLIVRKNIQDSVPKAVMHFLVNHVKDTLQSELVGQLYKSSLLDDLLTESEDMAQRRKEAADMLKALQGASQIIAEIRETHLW

Common to all, as to assay: co-IP; BEAS-2B cells with or without rmDEK (1 ug/ml, 24 h), lysed in IP Lysis Buffer (Pierce kit); anti-DRP1 or control IgG on crosslinked protein A/G agarose beads, overnight at 4 C; Western blot
Assay [1] has as its target T1, AAA domain-containing protein 3A (ATAD3A) (human (endogenous in BEAS-2B)) (UniProt Q9NVI7).
T1 sequence: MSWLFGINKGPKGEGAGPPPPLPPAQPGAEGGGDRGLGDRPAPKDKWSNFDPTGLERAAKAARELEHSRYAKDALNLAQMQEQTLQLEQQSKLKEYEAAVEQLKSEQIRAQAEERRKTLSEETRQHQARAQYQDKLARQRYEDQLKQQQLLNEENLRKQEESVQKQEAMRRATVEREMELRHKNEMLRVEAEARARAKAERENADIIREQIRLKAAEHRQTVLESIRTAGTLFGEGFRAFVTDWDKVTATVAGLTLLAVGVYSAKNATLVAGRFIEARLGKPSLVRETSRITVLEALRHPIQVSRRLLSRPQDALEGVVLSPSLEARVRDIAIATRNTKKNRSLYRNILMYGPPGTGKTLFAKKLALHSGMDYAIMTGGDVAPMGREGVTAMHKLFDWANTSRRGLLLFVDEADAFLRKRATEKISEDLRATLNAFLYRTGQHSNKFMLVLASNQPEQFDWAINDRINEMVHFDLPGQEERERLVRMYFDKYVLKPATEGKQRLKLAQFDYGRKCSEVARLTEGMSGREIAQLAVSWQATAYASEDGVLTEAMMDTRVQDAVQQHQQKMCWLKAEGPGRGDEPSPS

The target of assay [2] is dynamin-related protein 1 (DRP1) (human (endogenous in BEAS-2B)) (UniProt O00429).
Assay [3] deals with dynamin-related protein 1 (DRP1) (human (endogenous in BEAS-2B)), O00429. To be noted: remark: other sources report otherwise.

No constants are given. Whether binding was seen depends on the method and setting. Binding seen in cells or lysates may run through a third protein. Some binding calls cover weakened binding; strength is not graded here.

B1: DEK protein (protein, UniProt P35659 1-375)
chain: MSASAPAAEGEGTPTQPASEKEPEMPGPREESEEEEDEDDEEEEEEEKEKSLIVEGKREKKKVERLTMQVSSLQREPFTIAQGKGQKLCEIERIHFFLSKKKTDELRNLHKLLYNRPGTVSSLKKNVGQFSGFPFEKGSVQYKKKEEMLKKFRNAMLKSICEVLDLERSGVNSELVKRILNFLMHPKPSGKPLPKSKKTCSKGSKKERNSSGMARKAKRTKCPEILSDESSSDEDEKKNKEESSDDEDKESEEEPPKKTAKREKPKQKATSKSKKSVKSANVKKADSSTTKKNQNSSKKESESEDSSDDEPLIKKLKKPPTDEELKETIKKLLASANLEEVTMKQICKKVYENYPTYDLTERKDFIKTTVKELIS
Take B1: the binding entry in assay [1] and in assay [2] was “binds” each time.

B2: AAA domain-containing protein 3A (ATAD3A), Q9NVI7 1-586 (protein)
chain: MSWLFGINKGPKGEGAGPPPPLPPAQPGAEGGGDRGLGDRPAPKDKWSNFDPTGLERAAKAARELEHSRYAKDALNLAQMQEQTLQLEQQSKLKEYEAAVEQLKSEQIRAQAEERRKTLSEETRQHQARAQYQDKLARQRYEDQLKQQQLLNEENLRKQEESVQKQEAMRRATVEREMELRHKNEMLRVEAEARARAKAERENADIIREQIRLKAAEHRQTVLESIRTAGTLFGEGFRAFVTDWDKVTATVAGLTLLAVGVYSAKNATLVAGRFIEARLGKPSLVRETSRITVLEALRHPIQVSRRLLSRPQDALEGVVLSPSLEARVRDIAIATRNTKKNRSLYRNILMYGPPGTGKTLFAKKLALHSGMDYAIMTGGDVAPMGREGVTAMHKLFDWANTSRRGLLLFVDEADAFLRKRATEKISEDLRATLNAFLYRTGQHSNKFMLVLASNQPEQFDWAINDRINEMVHFDLPGQEERERLVRMYFDKYVLKPATEGKQRLKLAQFDYGRKCSEVARLTEGMSGREIAQLAVSWQATAYASEDGVLTEAMMDTRVQDAVQQHQQKMCWLKAEGPGRGDEPSPS
In the case of B2, the binding result in assay [3] was “binds”.
